The values below come from publication doi:10.1101/2021.12.21.473710.

Amino acid sequences for entries named in this document (tags omitted).
UniProt Q8S307: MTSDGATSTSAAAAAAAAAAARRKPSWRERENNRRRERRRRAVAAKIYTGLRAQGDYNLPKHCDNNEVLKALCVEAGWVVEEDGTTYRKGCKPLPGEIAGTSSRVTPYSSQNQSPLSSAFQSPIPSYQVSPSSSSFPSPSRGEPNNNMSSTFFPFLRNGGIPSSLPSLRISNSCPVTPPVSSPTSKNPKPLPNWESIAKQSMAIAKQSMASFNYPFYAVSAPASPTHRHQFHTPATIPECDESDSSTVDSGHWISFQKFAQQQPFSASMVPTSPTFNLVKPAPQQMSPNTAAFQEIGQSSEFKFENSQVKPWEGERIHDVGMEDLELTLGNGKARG
UniProt Q9LN63: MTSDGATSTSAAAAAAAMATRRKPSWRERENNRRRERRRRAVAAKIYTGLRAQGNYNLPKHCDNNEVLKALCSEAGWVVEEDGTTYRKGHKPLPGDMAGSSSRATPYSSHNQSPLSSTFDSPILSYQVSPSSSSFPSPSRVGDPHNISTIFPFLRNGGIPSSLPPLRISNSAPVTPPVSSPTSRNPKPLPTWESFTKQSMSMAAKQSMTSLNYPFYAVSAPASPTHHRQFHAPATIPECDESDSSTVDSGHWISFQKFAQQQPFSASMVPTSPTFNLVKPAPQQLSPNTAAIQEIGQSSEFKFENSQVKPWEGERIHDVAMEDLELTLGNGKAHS
UniProt Q9C518: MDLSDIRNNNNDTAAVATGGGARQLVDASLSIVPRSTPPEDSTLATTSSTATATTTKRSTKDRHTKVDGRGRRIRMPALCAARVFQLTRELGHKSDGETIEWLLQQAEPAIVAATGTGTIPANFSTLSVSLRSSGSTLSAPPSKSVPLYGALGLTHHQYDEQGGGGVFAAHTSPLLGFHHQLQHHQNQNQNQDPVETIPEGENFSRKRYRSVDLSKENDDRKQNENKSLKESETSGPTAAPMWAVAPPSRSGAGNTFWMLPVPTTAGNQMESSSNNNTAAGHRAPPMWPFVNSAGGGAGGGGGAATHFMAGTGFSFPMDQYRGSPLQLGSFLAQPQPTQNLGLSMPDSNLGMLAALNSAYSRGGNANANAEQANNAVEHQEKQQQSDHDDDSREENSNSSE

The target of test [1] is BZR1-nLUC (Arabidopsis thaliana) (UniProt Q8S307). The test can be described thus: split reporter.
Test [2] has as its target BZR2-nLUC (Arabidopsis thaliana) (UniProt Q9LN63). The test can be described thus: split reporter.
Test [3] addresses GST-BZR1 (Arabidopsis thaliana) (UniProt Q8S307). Put plainly: pull-down.
The target of test [4] is GST-BZR2 (Arabidopsis thaliana) (UniProt Q9LN63). Put plainly: pull-down.

Results are given in words; binding and its absence hold for the method and conditions named. In cells and extracts the contact can be indirect. Some entries that bind do so weakly or less than the wild type.

For the substance TCP8-cLUC (from UniProt Q9C518 1-401), the binding entry in test [1] and in test [2] was “binds” throughout.
In the case of HIS-T7-TCP8 (from UniProt Q9C518 1-401), the binding result in test [3] and in test [4] was “binds” in each case.
